Hit rate of the full screen: of about 320,000 compounds, about 22,000 (6.9%) were called active. Inconclusive means that the source gave no clear call. Such entries were picked first, then a sample of the others. Calls come from the whole dose curve; as a rule, active = well fitted inhibition curve with a large enough effect; inconclusive = small, poorly fitted or top-dose-only effect, or another doubt; inactive = no such curve, though single readings can be large or run the other way. A potency beside an inconclusive call is a rough fit, not a confirmed value.
Assay: Primary qHTS for delayed death inhibitors of the malarial parasite plastid, 96 hour incubation
Conditions: P. falciparum luciferase reporter growth; series mostly up to 28.7 µM; activity change, negative = inhibition: at the top concentration
Summary of the method: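 Two parasite generations (96 h, 37 C, 5% CO2) of compound exposure in infected erythrocytes (0.05% parasitemia, 2% hematocrit). Luciferase-reporter P. falciparum; decreased luminescence indicates inhibited growth, aimed at apicoplast-acting delayed death.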
% is set by controls: 0 for no effect and ±100 for the full control effect; potency is the fitted concentration of half-maximal effect.

| SMILES | Potency | activity change, negative = inhibition |
| --- | --- | --- |
| CN(CC(=O)N1CCN(c2ccccn2)CC1)S(=O)(=O)c1cccc2nsnc12 | active: 9.28 µM | – |
| Cc1ccc(S(=O)(=O)Oc2ccc(/C=N/NC(=O)c3nn(C)cc3Cl)cc2)cc1 | inconclusive: 9.28 µM [inhibitor, single point] | – |
| Cc1noc(-c2ccc(Cl)cc2)c1C(=O)O/N=C(\N)c1ccc(C(C)(C)C)cc1 | inconclusive: 18.5 µM [inhibitor, single point] | – |
| COc1c(C)cc(C(=O)C2CCCN(C(=O)CCCn3cncn3)C2)cc1C (stereo not drawn) | – | inactive: 6.16% |
| O=S(=O)(c1ccc(F)c(F)c1)N1CCN(c2ccccn2)CC1 | inconclusive: 9.28 µM [inhibitor, single point] | – |
| O=C(NCC1OCCc2ccccc21)c1ccc(NC(=O)c2ccc(Cl)cc2)cc1 (stereo not drawn) | – | inactive: 20.1% |
| Cc1ccc(O)c(-n2nc3ccccc3n2)c1 | inconclusive: 13.1 µM [inhibitor, single point] | – |
| Cc1c(C)c2c(OCC(=O)N3CCC[C@H]3C(=O)O)cc3c(c2oc1=O)CCC(C)(C)O3 | active: 13.1 µM | – |
| COc1ccc(-n2c(C)nn(CCOc3ccccc3)c2=O)cc1 | – | inactive: 116% |
| CCCCCCN1C=C/C(=C\C=C(C#N)C#N)c2ccccc21 | inconclusive: 3.7 µM [inhibitor, full curve, poor fit] | – |
| O=C(N/N=C/c1c(F)c(F)c(F)c(F)c1F)c1cc(-c2ccccc2)nc2ccccc12 | – | inactive: 4.55% |
| Cc1cc(Cl)ccc1OCC(=O)N/N=C1\CCCc2ccccc21 | – | inactive: 61.6% |
| C/C(=C\C(=O)Nc1cc(C)on1)c1ccccc1 | – | inactive: 113% |
| N/C(=N\OC(=O)CC1CCCCC1)c1ccc(Br)cc1 | inconclusive: 18.5 µM [inhibitor, single point] | – |
| Cc1cn(CCC(=O)Nc2ccc(N3CCOCC3)cc2)c2ccccc12 | inconclusive: 0.0928 µM [inhibitor, full curve] | – |
| N#CC(C#N)=Cc1ccc(-c2ccccc2F)o1 | inconclusive: 14.7 µM [inhibitor, single point] | – |
| Cc1ccc(S(=O)(=O)Nc2cccc(C(=O)NC3CCN(Cc4ccccc4)CC3)c2)cc1F | inconclusive: 11.7 µM [inhibitor, single point] | – |
| O=C(O)CCNS(=O)(=O)c1ccc2c(c1)OCCCO2 | – | inactive: 19.9% |
| COc1cc(/C=N/Nc2ccc(Cl)c(C(=O)O)c2)ccc1OC(=O)c1ccc(F)cc1 | – | inactive: 349% |
| CCOC(=O)Nc1ccc2c(COC(=O)CNS(=O)(=O)c3ccc(NC(C)=O)cc3)cc(=O)oc2c1 | – | inactive: 42.5% |
| O=C(CCC(=O)Nc1ccc(Br)cc1)N/N=C/c1ccccc1F | inconclusive: 2.08 µM [inhibitor, partial curve] | – |
| CCOC(=O)C(NC(=O)CC(C)C)(Nc1sc(C)c(CC)c1C#N)C(F)(F)F (stereo not drawn) | inconclusive: 18.5 µM [inhibitor, single point] | – |
| COc1ccc(-c2cnnc(N/N=C/c3ccc(O)cc3)n2)cc1 | – | inactive: 13% |
| O=C(O)CCNc1ccc(NCCC(=O)O)c2c1C(=O)c1ccccc1C2=O | inconclusive: 11.7 µM [inhibitor, single point] | – |
| COc1ccc(Cl)cc1NC(=O)C1CCN(C(=O)Nc2ccccc2)CC1 | inconclusive: 18.5 µM [inhibitor, single point] | – |

6 records drawn at random from the list so far:

| SMILES | Potency | activity change, negative = inhibition |
| --- | --- | --- |
| O=C(NCC1OCCc2ccccc21)c1ccc(NC(=O)c2ccc(Cl)cc2)cc1 (stereo not drawn) | – | inactive: 20.1% |
| COc1ccc(-n2c(C)nn(CCOc3ccccc3)c2=O)cc1 | – | inactive: 116% |
| N/C(=N\OC(=O)CC1CCCCC1)c1ccc(Br)cc1 | inconclusive: 18.5 µM [inhibitor, single point] | – |
| CCCCCCN1C=C/C(=C\C=C(C#N)C#N)c2ccccc21 | inconclusive: 3.7 µM [inhibitor, full curve, poor fit] | – |
| COc1ccc(-c2cnnc(N/N=C/c3ccc(O)cc3)n2)cc1 | – | inactive: 13% |
| O=S(=O)(c1ccc(F)c(F)c1)N1CCN(c2ccccn2)CC1 | inconclusive: 9.28 µM [inhibitor, single point] | – |

Next part

| SMILES | Potency | activity change, negative = inhibition |
| --- | --- | --- |
| CCOc1ncccc1C(=O)Nc1cc(S(=O)(=O)N2CCCCC2)ccc1OC | inconclusive: 11.7 µM [inhibitor, partial curve] | – |
| Cc1cc(C)c(-c2csc(NC(=O)c3cc([N+](=O)[O-])ccc3N3CCOCC3)n2)c(C)c1 | inconclusive: 10.4 µM [inhibitor, single point] | – |
| Cc1nnc(SCC(=O)Nc2ccccc2C(=O)NC2CC2)s1 | – | inactive: 0% |
| CCOc1ccc(NC(=O)CN(C)C(=O)CC(NC(=O)c2ccccc2)c2ccccc2)cc1OCC (stereo not drawn) | inconclusive: 4.15 µM [inhibitor, partial curve] | – |
| Clc1cccc(Nc2ncnc3ccc(Br)cc23)c1 | active: 4.15 µM | – |
| O=C(NCC(=O)N1CCCC(C(F)(F)F)C1)c1ccc(Oc2ccccc2)cc1 (stereo not drawn) | inconclusive: 18.5 µM [inhibitor, single point] | – |
| Ic1ccccc1CN[C@@H]1C2CCN(CC2)[C@@H]1C(c1ccccc1)c1ccccc1 | active: 2.94 µM | – |
| COc1ccc(OC)c(N)c1 | active: 16.5 µM | – |
| Cc1cc(C)cc(NC(=O)CSc2nnc(Cn3c(=O)sc4ccccc43)n2C)c1 | inconclusive: 16.5 µM [inhibitor, single point] | – |
| CCNC(=O)N1CCC(c2nc3ccccc3s2)CC1 | inconclusive: 18.5 µM [inhibitor, single point] | – |
| CCc1ccc(NC(=O)[C@H](Cc2c[nH]c3ccccc23)NC(=O)[C@@H]2Cc3ccccc3CN2)cc1 | inconclusive: 4.15 µM [inhibitor, partial curve] | – |
| Cc1cc(C)c(S(=O)(=O)c2ccccc2)c(OC(=O)c2c(Cl)cc(Cl)cc2Cl)n1 | – | inactive: 14% |
| O=C(Nc1cccc(-n2cnnn2)c1)c1cnccc1Cl | – | inactive: 28.3% |
| COc1cccc(CN2CCN(C(c3ccccc3)c3ccccc3)CC2)c1O | active: 0.415 µM | – |
| c1ccc2oc(-c3[nH]ncc3CN3CCSCC3)cc2c1 | – | inactive: -3.5% |
| CN(CC1COc2ccccc2O1)C(=O)c1ccc(Cl)c(S(=O)(=O)N2CCCCCC2)c1 (stereo not drawn) | inconclusive: 18.5 µM [inhibitor, single point] | – |
| CCOC(=O)CC(=O)CSc1nccc(-c2cccnc2)n1 | – | inactive: -12.5% |
| C[C@H](NC(=O)c1nc[nH]c1C(=O)OCc1ccccc1)c1ccccc1 | inconclusive: 5.22 µM [inhibitor, single point] | – |
| COc1ccc(NS(=O)(=O)c2cc(NC(=O)c3cccs3)ccc2N2CCOCC2)cc1 | inconclusive: 8.28 µM [inhibitor, single point] | – |
| O=C(CCCNC(=O)c1ccc(Cl)cc1)NCc1ccccc1Cl | – | inactive: 11.8% |
| CCOC(=O)c1sc(NC(=O)CSCc2c(C)noc2C)nc1C | inconclusive: 14.7 µM [inhibitor, single point] | – |
| COc1cccc(CN2CC(C(=O)NCCN3CCOC3=O)CCC2=O)c1 (stereo not drawn) | inconclusive: 14.7 µM [inhibitor, single point] | – |
| CCC(CC)C(=O)Nc1cccc(C(=O)NCCc2ccc(S(N)(=O)=O)cc2)c1 | – | inactive: -12.5% |
| CC(=NCCc1c(C)[nH]c2ccc(OCc3ccccc3)cc12)C1=C(O)CC(c2ccccc2)CC1=O (stereo not drawn) | inconclusive: 2.33 µM [inhibitor, partial curve, poor fit] | – |
| CCC(=O)c1ccc(OCC(=O)OCC(=O)N2CCc3ccccc3C2)cc1 | – | inactive: -1.61% |

| SMILES | Potency | activity change, negative = inhibition |
| --- | --- | --- |
| Fc1ccccc1N1CCN(CCCNc2ccc3nncn3n2)CC1 | inconclusive: 6.57 µM [inhibitor, partial curve, poor fit] | – |
| CC(C)c1ccc(NC(=O)C(c2ccccc2)N2CCOCC2)cc1 (stereo not drawn) | inconclusive: 7.38 µM [inhibitor, partial curve] | – |
| O=C(O)c1ccccc1C(=O)Nc1ccc(Oc2ccccc2)cc1 | – | inactive: 29.5% |
| COc1ccc(CNC(=O)c2oc3ccc(S(=O)(=O)N4CCOCC4)cc3c2C)cc1 | inconclusive: 11.7 µM [inhibitor, single point] | – |
| CCN1CCN(C(=O)c2sc3nc(C)nc(N4CCC(C)CC4)c3c2C)CC1 | inconclusive: 1.47 µM [inhibitor, full curve, poor fit] | – |
| O=C1/C(=C\c2cccnc2)SC(=S)N1C1CCS(=O)(=O)C1 (stereo not drawn) | inconclusive: 14.7 µM [inhibitor, partial curve, poor fit] | – |
| CC(OC(=O)/C=C/c1ccco1)C(=O)NC1CCCCC1C (stereo not drawn) | – | inactive: -14.1% |
| CCOC(=O)C(=NC(C)C)NNc1cc(Cl)ccc1Cl | – | inactive: 0% |
| Cc1cc(OC(C)C(=O)NCc2cccnc2)c2c(C)c(C)c(=O)oc2c1 (stereo not drawn) | – | inactive: -1.49% |
| CCOC(=O)C1(C(=O)O)NC(=O)CC1c1ccccc1 (stereo not drawn) | inconclusive: 0.0033 µM [inhibitor, full curve, poor fit] | – |
| Cc1ccc2c(c1)N(C(=O)CCC(=O)NCc1ccccc1)CC(C)O2 (stereo not drawn) | inconclusive: 10.4 µM [inhibitor, partial curve, poor fit] | – |
| COc1ccc(-c2cc3ccccc3oc2=O)cc1NC(=O)c1ccc([N+](=O)[O-])o1 | active: 2.62 µM | – |
| Cc1ccc(NC(=O)CSc2n[nH]c(-c3cccnc3)n2)c(Br)c1 | inconclusive: 8.28 µM [inhibitor, single point] | – |
| COc1ccc(/C=C(\C#N)C(=O)OCC(=O)Nc2c(C)cccc2C)cc1 | – | inactive: 1.74% |
| CS(=O)(=O)c1ccc(C(=O)Nc2ccc(-c3nc4ccccc4[nH]3)cc2)cc1 | – | inactive: -26.5% |
| Cc1cc(NC(=O)Cn2c(=O)n(Cc3ccccc3)c(=O)c3ccccc32)no1 | – | inactive: 0% |
| O=C(CSc1ccc(-c2ccccn2)nn1)N1CCCc2ccccc21 | inconclusive: 13.1 µM [inhibitor, single point] | – |
| Cc1c(OC(C)C(=O)O)ccc2c3c(c(=O)oc12)CCCC3 (stereo not drawn) | active: 10.4 µM | – |
| CC(C)COC(=O)/C(C#N)=C/c1cn(Cc2ccccc2)c2ccccc12 | inconclusive: 18.5 µM [inhibitor, single point] | – |
| CON(C)S(=O)(=O)NC(=O)C1=C(N2CCCC2)COC1=O | inconclusive: 5.86 µM [inhibitor, single point] | – |
| COc1ccccc1CNc1nc(=S)[nH]c2cc(OC)c(OC)cc12 | – | inactive: 1.44% |
| CCc1ccc(N/C(N)=N/c2nc(CSc3ncccn3)cc(=O)[nH]2)cc1 | inconclusive: 18.5 µM [inhibitor, partial curve, poor fit] | – |
| CCOC(=O)Oc1c(OC)cc(C(=O)O[C@H]2C[C@H]3CN4CCc5c([nH]c6cc(OC)ccc56)[C@@H]4C[C@H]3[C@@H](C(=O)OC)[C@@H]2OC)cc1OC | active: 1.28 µM | – |

Reference: PubChem BioAssay AID504834 (National Center for Advancing Translational Sciences (NCATS), 2011)
